Paper PMC8636648
These are yes or no findings as the source states them, for the method shown. Binding seen in cells or lysates may run through a third protein. Some entries that bind do so weakly or less than the wild type.

Chains of the proteins cited; added tags and fusions are not shown.
UniProt Q00987: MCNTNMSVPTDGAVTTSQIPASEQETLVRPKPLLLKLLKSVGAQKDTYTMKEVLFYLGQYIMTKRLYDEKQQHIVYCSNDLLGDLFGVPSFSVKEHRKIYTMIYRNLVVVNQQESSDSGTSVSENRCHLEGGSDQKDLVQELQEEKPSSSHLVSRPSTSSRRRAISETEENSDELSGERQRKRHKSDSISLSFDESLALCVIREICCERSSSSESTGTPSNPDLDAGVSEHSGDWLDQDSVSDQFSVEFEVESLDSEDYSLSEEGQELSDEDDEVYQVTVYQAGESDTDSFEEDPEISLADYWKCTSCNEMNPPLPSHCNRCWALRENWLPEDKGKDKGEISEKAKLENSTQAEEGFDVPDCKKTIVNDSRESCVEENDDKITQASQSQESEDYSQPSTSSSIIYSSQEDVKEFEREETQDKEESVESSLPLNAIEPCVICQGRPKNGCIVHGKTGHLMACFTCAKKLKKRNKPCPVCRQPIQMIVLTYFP

Target: T1, RE1 silencing transcription factor (REST) (human (endogenous in pancreatic cancer cells)) (UniProt Q13127)
T1 sequence: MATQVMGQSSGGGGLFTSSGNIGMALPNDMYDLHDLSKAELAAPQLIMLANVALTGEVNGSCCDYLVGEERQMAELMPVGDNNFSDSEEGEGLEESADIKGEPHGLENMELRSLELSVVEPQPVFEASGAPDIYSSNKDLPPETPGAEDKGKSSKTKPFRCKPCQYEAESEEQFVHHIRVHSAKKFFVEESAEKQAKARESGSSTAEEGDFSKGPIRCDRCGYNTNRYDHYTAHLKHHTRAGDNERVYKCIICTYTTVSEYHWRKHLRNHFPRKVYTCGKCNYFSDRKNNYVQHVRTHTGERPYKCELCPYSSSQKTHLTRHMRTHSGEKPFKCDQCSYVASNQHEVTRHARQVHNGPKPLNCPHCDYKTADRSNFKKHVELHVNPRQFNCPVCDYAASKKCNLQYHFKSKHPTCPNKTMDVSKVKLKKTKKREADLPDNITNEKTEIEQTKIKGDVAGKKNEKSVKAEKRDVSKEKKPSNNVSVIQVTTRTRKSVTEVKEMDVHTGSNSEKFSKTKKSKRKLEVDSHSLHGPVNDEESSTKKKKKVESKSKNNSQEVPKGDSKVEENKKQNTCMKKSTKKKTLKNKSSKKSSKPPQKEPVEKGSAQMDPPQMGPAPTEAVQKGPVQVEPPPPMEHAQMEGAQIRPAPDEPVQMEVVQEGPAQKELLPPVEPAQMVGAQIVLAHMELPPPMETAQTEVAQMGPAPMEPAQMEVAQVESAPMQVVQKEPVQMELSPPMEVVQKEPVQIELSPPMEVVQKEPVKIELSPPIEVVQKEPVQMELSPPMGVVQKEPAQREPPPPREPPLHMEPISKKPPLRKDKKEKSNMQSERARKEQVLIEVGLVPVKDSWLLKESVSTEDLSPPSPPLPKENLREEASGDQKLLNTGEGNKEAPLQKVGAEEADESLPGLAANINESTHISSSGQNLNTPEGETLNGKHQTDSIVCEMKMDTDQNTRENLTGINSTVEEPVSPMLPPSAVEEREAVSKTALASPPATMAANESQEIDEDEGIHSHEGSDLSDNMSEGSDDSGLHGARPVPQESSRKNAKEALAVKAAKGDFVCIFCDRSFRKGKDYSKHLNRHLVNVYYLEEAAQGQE
Test: co-IP; anti-REST, anti-MDM2 or normal IgG; complex examined by western blot; PC cells with or without KCNK15-AS1 overexpression

MDM2 proto-oncogene (MDM2) (from UniProt Q00987 1-491)
binding: binds
